Data as given in paper PMC11131071.
These are yes or no findings as the source states them, for the method shown. In cells and extracts the contact can be indirect. Some binding calls cover weakened binding; strength is not graded here. Blank lines part the entries; values can stand above or below the binder they belong to.

Experiments:
[1] = target: T1, ABCG2 (human (endogenous in MCF-7/MX and H460/MX)) (UniProt Q9UNQ0); test: co-IP; lysates of H460/MX cells compared with H460 (Fig. S1B); Western blot
T1 sequence: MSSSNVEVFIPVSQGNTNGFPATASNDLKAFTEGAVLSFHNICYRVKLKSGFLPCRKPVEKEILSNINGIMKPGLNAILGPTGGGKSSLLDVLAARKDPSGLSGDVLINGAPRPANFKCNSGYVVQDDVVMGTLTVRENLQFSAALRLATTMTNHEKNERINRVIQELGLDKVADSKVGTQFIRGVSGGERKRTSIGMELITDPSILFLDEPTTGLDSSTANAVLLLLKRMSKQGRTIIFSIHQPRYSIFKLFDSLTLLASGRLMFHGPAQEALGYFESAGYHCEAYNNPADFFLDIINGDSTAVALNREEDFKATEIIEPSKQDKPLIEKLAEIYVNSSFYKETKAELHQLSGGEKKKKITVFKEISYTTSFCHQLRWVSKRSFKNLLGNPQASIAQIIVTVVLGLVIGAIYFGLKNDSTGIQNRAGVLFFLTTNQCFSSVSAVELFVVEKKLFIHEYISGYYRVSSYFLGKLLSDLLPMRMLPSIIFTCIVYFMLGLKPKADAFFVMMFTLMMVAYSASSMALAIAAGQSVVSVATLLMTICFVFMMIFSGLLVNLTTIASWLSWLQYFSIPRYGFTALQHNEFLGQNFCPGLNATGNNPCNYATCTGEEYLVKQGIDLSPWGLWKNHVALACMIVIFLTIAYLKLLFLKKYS

[2] = target: T2, ABCG2 expressed from pcDNA-ABCG2 in HEK293 cells (human) (UniProt Q9UNQ0); test: co-IP; lysates of HEK293 cells stably transfected with an ABCG2 expression vector compared with HEK293 (Fig. S1A); Western blot
T2 sequence: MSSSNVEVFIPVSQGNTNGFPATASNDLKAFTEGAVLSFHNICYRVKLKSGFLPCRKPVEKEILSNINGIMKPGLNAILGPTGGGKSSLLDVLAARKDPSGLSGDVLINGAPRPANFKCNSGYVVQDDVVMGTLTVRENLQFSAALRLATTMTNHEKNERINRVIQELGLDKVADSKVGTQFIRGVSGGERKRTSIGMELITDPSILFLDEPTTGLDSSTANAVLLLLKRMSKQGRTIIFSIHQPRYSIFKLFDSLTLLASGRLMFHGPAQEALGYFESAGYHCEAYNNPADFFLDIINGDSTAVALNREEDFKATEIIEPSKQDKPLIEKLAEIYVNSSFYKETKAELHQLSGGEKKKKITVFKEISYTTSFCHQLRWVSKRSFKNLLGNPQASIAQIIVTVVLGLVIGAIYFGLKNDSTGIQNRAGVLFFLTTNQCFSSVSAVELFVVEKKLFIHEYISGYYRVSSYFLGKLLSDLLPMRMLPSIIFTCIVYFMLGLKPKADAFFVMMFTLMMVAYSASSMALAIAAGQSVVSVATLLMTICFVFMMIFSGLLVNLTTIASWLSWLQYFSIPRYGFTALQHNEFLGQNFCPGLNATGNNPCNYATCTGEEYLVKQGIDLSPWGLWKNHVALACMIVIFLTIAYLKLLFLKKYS

[3] = target: T1, ABCG2 (human (endogenous in MCF-7/MX and H460/MX)); test: co-IP; MCF-7/MX (and MCF-7) lysate, 1 mg protein, lysis buffer with 1% Triton X-100, 0.5% deoxycholate, 0.1% SDS, 150 mM NaCl; anti-ABCG2 MXP-21 or anti-SLC1A5 overnight at 4 °C, protein G/A Sepharose; Western blot
[4] = target: T3, SLC1A5 (human (endogenous in MCF-7/MX, H460/MX and HEK293)) (UniProt Q15758); test: co-IP; lysates of H460/MX cells compared with H460 (Fig. S1B); Western blot
T3 sequence: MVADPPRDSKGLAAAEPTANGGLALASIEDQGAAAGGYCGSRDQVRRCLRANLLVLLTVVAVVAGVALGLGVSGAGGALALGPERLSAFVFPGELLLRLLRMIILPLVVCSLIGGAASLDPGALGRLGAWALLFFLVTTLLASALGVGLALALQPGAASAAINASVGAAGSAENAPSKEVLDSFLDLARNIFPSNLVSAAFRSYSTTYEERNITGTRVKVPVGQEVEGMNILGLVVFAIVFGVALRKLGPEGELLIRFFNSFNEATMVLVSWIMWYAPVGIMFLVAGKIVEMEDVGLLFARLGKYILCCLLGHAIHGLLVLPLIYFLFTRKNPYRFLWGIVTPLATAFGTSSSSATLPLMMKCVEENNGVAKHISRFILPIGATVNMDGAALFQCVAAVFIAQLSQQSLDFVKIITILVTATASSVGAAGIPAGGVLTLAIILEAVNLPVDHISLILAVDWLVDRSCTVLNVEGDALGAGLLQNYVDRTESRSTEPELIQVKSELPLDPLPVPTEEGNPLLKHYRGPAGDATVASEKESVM

[5] = target: T3, SLC1A5 (human (endogenous in MCF-7/MX, H460/MX and HEK293)); test: co-IP; MCF-7/MX (and MCF-7) lysate, 1 mg protein, lysis buffer with 1% Triton X-100, 0.5% deoxycholate, 0.1% SDS, 150 mM NaCl; anti-ABCG2 MXP-21 or anti-SLC1A5 overnight at 4 °C, protein G/A Sepharose; Western blot
[6] = target: T3, SLC1A5 (human (endogenous in MCF-7/MX, H460/MX and HEK293)); test: co-IP; lysates of HEK293 cells stably transfected with an ABCG2 expression vector compared with HEK293 (Fig. S1A); Western blot

binding [1]: binds
binding [2]: binds
binding [3]: binds
B1: SLC1A5 (protein, UniProt Q15758 1-541)
chain: MVADPPRDSKGLAAAEPTANGGLALASIEDQGAAAGGYCGSRDQVRRCLRANLLVLLTVVAVVAGVALGLGVSGAGGALALGPERLSAFVFPGELLLRLLRMIILPLVVCSLIGGAASLDPGALGRLGAWALLFFLVTTLLASALGVGLALALQPGAASAAINASVGAAGSAENAPSKEVLDSFLDLARNIFPSNLVSAAFRSYSTTYEERNITGTRVKVPVGQEVEGMNILGLVVFAIVFGVALRKLGPEGELLIRFFNSFNEATMVLVSWIMWYAPVGIMFLVAGKIVEMEDVGLLFARLGKYILCCLLGHAIHGLLVLPLIYFLFTRKNPYRFLWGIVTPLATAFGTSSSSATLPLMMKCVEENNGVAKHISRFILPIGATVNMDGAALFQCVAAVFIAQLSQQSLDFVKIITILVTATASSVGAAGIPAGGVLTLAIILEAVNLPVDHISLILAVDWLVDRSCTVLNVEGDALGAGLLQNYVDRTESRSTEPELIQVKSELPLDPLPVPTEEGNPLLKHYRGPAGDATVASEKESVM

binding [4]: binds
binding [5]: binds
B2: ABCG2 (protein, UniProt Q9UNQ0 1-655)
chain: MSSSNVEVFIPVSQGNTNGFPATASNDLKAFTEGAVLSFHNICYRVKLKSGFLPCRKPVEKEILSNINGIMKPGLNAILGPTGGGKSSLLDVLAARKDPSGLSGDVLINGAPRPANFKCNSGYVVQDDVVMGTLTVRENLQFSAALRLATTMTNHEKNERINRVIQELGLDKVADSKVGTQFIRGVSGGERKRTSIGMELITDPSILFLDEPTTGLDSSTANAVLLLLKRMSKQGRTIIFSIHQPRYSIFKLFDSLTLLASGRLMFHGPAQEALGYFESAGYHCEAYNNPADFFLDIINGDSTAVALNREEDFKATEIIEPSKQDKPLIEKLAEIYVNSSFYKETKAELHQLSGGEKKKKITVFKEISYTTSFCHQLRWVSKRSFKNLLGNPQASIAQIIVTVVLGLVIGAIYFGLKNDSTGIQNRAGVLFFLTTNQCFSSVSAVELFVVEKKLFIHEYISGYYRVSSYFLGKLLSDLLPMRMLPSIIFTCIVYFMLGLKPKADAFFVMMFTLMMVAYSASSMALAIAAGQSVVSVATLLMTICFVFMMIFSGLLVNLTTIASWLSWLQYFSIPRYGFTALQHNEFLGQNFCPGLNATGNNPCNYATCTGEEYLVKQGIDLSPWGLWKNHVALACMIVIFLTIAYLKLLFLKKYS

binding [6]: binds
B3: ABCG2 expressed from pcDNA-ABCG2 in HEK293 cells (protein, UniProt Q9UNQ0 1-655)
chain: MSSSNVEVFIPVSQGNTNGFPATASNDLKAFTEGAVLSFHNICYRVKLKSGFLPCRKPVEKEILSNINGIMKPGLNAILGPTGGGKSSLLDVLAARKDPSGLSGDVLINGAPRPANFKCNSGYVVQDDVVMGTLTVRENLQFSAALRLATTMTNHEKNERINRVIQELGLDKVADSKVGTQFIRGVSGGERKRTSIGMELITDPSILFLDEPTTGLDSSTANAVLLLLKRMSKQGRTIIFSIHQPRYSIFKLFDSLTLLASGRLMFHGPAQEALGYFESAGYHCEAYNNPADFFLDIINGDSTAVALNREEDFKATEIIEPSKQDKPLIEKLAEIYVNSSFYKETKAELHQLSGGEKKKKITVFKEISYTTSFCHQLRWVSKRSFKNLLGNPQASIAQIIVTVVLGLVIGAIYFGLKNDSTGIQNRAGVLFFLTTNQCFSSVSAVELFVVEKKLFIHEYISGYYRVSSYFLGKLLSDLLPMRMLPSIIFTCIVYFMLGLKPKADAFFVMMFTLMMVAYSASSMALAIAAGQSVVSVATLLMTICFVFMMIFSGLLVNLTTIASWLSWLQYFSIPRYGFTALQHNEFLGQNFCPGLNATGNNPCNYATCTGEEYLVKQGIDLSPWGLWKNHVALACMIVIFLTIAYLKLLFLKKYS
